Results of single-concentration screens

From ChEMBL document CHEMBL3988442, “University of Dundee, Small-Polar-MMV Screening Library” (2021).

Each number is a percent effect as filed.
The controls that fix the scale are not given in the record; negative values are as filed.
Compounds were drawn at random from those tested, without regard to their results.
Two or more numbers in one place are separate tests of the same structure; such repeats can differ widely.

Mtb cholesterol medium: 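Growth of Mycobacterium tuberculosis over 4 days (cholesterol / DPPC medium with tyloxapol); the read-out is not stated. Tested at 50 µM. The record gives no direction; compounds that gave an IC50 in retests scored well above the rest, so higher reads as more growth inhibition. Of about 69,000 compounds tested this way, about 370 (0.54%) reached 50% or more in at least one test.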
Mtb glucose medium: 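Whole-cell growth test on Mycobacterium tuberculosis, read after 3 days in glucose-containing 7H9 medium; the read-out is not stated. Tested at 50 µM. Direction is inferred from retests: higher values go with more growth inhibition. About 69,000 compounds were tested under these conditions; 1.1% (about 760) showed 50% or more at least once.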

| # | structure | Mtb cholesterol medium | Mtb glucose medium |
|---|---|---|---|
| 1 | `O=C(O)C(F)(F)F.[H][C@@]12CCCO[C@]1([H])[C@H](N(C)Cc1ccco1)CN(C(=O)C1CCOCC1)C2` | -5.141 | -31.28 |
| 2 | `CSCC(=O)NC1(c2cccc(Cl)c2)CC1` | -14.92 | -7.193 & 4.129 |
| 3 | `CCN(CC)C(CNCc1ccc(O)cc1)c1ccco1` (stereo unspecified) | 11.73 | 38.62 |
| 4 | `CCn1ccnc1CN1CCCC(N(C)CCc2ccccc2)C1` (stereo unspecified) | -3.241 & 30.75 | 17.5 |
| 5 | `Oc1cc(C2CCCN(Cc3cccs3)C2)nc(-c2ccccn2)n1` (stereo unspecified) | 24.44 & 19.1 | -0.7696 |
| 6 | `O=C(O)c1ccnc(-c2ccnc(N3CCCCCC3)n2)c1` | 4.124 | -9.299 |
| 7 | `c1cnn(CCNCc2cnc(N3CCCC3)nc2)c1` | 5.299 | -9.903 |
| 8 | `CCCc1n[nH]c(C2CN(C(=O)c3cccnc3N(C)C)CCO2)n1` (stereo unspecified) | 2.516 | -12.75 |
| 9 | `O=C(c1cc(Cl)ccc1OC1CCN(C2CCCC2)CC1)N1CCCO1` | -14.66 | -18.59 |
| 10 | `Cc1ccc2nc(C3CCN(CC(C)C)CC3)nc(O)c2c1` | -19.61 | -8.553 |
| 11 | `c1ccc2ncc(CC3CNCCOC3)cc2c1` (stereo unspecified) | -12.06 | -10.53 |
| 12 | `COc1cc(CNc2ccc(Cl)cc2)ccc1OCC(=O)O` | -5.544 | -2.5 |
| 13 | `CCn1cc2c(n1)CN(C(=O)c1ccncc1)CC2COCC1CC1.O=C(O)C(F)(F)F` (stereo unspecified) | -2.133 | -0.8963 |
| 14 | `Cc1ccc(C)c(Oc2ccc(CNC(=O)C3CCS(=O)(=O)C3)cn2)c1` (stereo unspecified) | -3.652 & 3.136 | -33.28 |
| 15 | `COc1ccc(C2OC(COc3ccc(C)cc3)=NN2C(C)=O)cc1` (stereo unspecified) | 7.518 | 20.8 |
| 16 | `CNC(=O)c1ccc(CN(C(C)C)C(C)C)o1.Cl` | 6.908 | 0.4815 & 5.137 |
| 17 | `CN1CCCCC12CCN(C(=O)c1cccn1C)CC2.O=C(O)C(F)(F)F` | -11.14 | 12.4 |
| 18 | `[H][C@@]12CN(c3ncc(C)cn3)C[C@@]1([H])N(C)C(=O)CO2` | -5.017 | -0.5416 & 12.72 |
| 19 | `Cc1ccc(NC(=O)CSCc2cccnc2)nc1` | -17.89 | 7.188 |
| 20 | `Cc1ccc(C(=O)N2CCN(C(=O)Nc3ccccn3)CC2)o1` | -24.48 | -10.53 |
| 21 | `COc1cccc(CN(C)Cc2nc3c(cnn3C)c(=O)[nH]2)c1OC` | 7.115 | -13.1 |
| 22 | `CCc1cc(O)nc(C2CCCN2C(=O)c2cc(CC)on2)n1` (stereo unspecified) | 15.07 | 19.94 |
| 23 | `Cc1nc(CN2CCC(N(C)Cc3nnc(C4CC4)n3C)C2)oc1C` (stereo unspecified) | -38.58 | -6.006 & -3.109 |
| 24 | `O=C(O)C(F)(F)F.O=C1N(CC2CC2)CCC12CCN(c1ncccn1)CC2` | -18.77 | -28.68 |
| 25 | `O=C(Cn1ccc2ccccc21)NCc1cc(N2CCOCC2)ncn1` | 12.96 | 3.461 & 24.45 |
| 26 | `CNC(=O)NC(=O)C(C)Nc1ccccc1OCCOC` (stereo unspecified) | 7.609 | 20.16 |
| 27 | `CCN1CCc2[nH]cnc2C12CCN(C(=O)CCCn1cncn1)CC2` | -10.94 | -1.265 & -17.3 |
| 28 | `Cl.O=C(NC1CCCC1)c1cc(C2CCCNC2)n[nH]1` (stereo unspecified) | -0.2135 | -5.215 |
| 29 | `O=C1CCC(c2ccccc2)=NN1CN1CCCCCC1` | -15.04 | -0.08807 |
| 30 | `CS(=O)(=O)N1CC[C@]2(C[C@@H](OCC3CCC3)CO2)C1` | 9.898 | 18.26 |
| 31 | `Cc1nc(CN2CCCC(NCCc3ccccc3Cl)C2)no1` (stereo unspecified) | -6.857 | 10.83 |
| 32 | `O=C(C(c1ccc(F)cc1)N1CCCCC1)N1CCn2cncc2C1` (stereo unspecified) | -0.745 & -10.86 | 6.488 |
| 33 | `NC(=O)CS(=O)(=O)Cc1csc(-c2ccccc2)n1` | -17.67 | -29.8 |
| 34 | `CC(C)c1cccc(S(=O)(=O)NCCCN2CCC(O)CC2)c1` | -6.702 | 5.704 & 6.126 |
| 35 | `CC1(C)CNC(=O)c2nc(-c3n[nH]c(=O)[nH]3)[nH]c2C1` | -12.15 | 4.305 |
| 36 | `COC(C)(C)CNC(=O)C1CCC(=O)N(C2CCCC2)C1` (stereo unspecified) | -11.93 | -22.69 |
| 37 | `O=C(CCC(=O)N1CCC(c2noc3cc(F)ccc23)CC1)NC1CC1` | -9.865 | 1.478 |
| 38 | `CCc1ccc(S(=O)(=O)Nc2c(C)cccc2C(=O)O)s1` | 2.584 | -6.554 |
| 39 | `CC(C)C(=O)N1CCCC12CCN(C(=O)c1ccno1)C2` (stereo unspecified) | -3.794 | 24.38 |
| 40 | `Cn1cnn(Cc2ccccc2F)c1=O` | -15.21 | -2.083 & -19.92 |
| 41 | `COc1cnc(C2(O)CCN(C(=O)c3ccco3)CC2)c(OC)n1` | -5.136 | 25.62 |
| 42 | `COc1ccc(COCC(=O)NC2CCc3nc(C)cn3C2)cc1` (stereo unspecified) | 17.03 & 0.1491 | -5.32 |
| 43 | `CC(C)n1ncc2c1NC(=O)CC2c1ccccc1Cl` (stereo unspecified) | -0.653 | 37.01 |
| 44 | `COc1cc(NC(=O)c2cc(Cl)ccc2F)c(C(=O)N(C)C)cc1OC` | 1.565 & -4.263 | 3.58 |
| 45 | `OCCn1cc(CN2CCN(CCOc3ccc(F)cc3)CC2)cn1` | 0.4118 | 0.9248 |
| 46 | `Cc1cc(CNC(=O)CC2CCN(C(C)C)CC2)n(C)n1` | 8.041 | 17.1 & -6.643 |
| 47 | `COc1cccc2c1OCC(Cc1cc(C(=O)N3CCCC3)ccn1)C2` (stereo unspecified) | 2.68 | 8.277 |
| 48 | `COC(=O)[C@H](C)NC(=O)CSCc1nc2sc(C(C)C)cc2c(=O)[nH]1` | -2.041 | 23.67 |
| 49 | `CSC1(CNC(=O)N(C)Cc2ccc(Cl)s2)CCOCC1` | -63.12 | -57.39 |
| 50 | `Cn1ccnc1CN1CCN(CC(=O)NCc2cccs2)CC1` | -9.314 | -21.45 & -9.938 |
| 51 | `CCc1ccc(CC)c(NCc2cnc(N3CCOCC3)nc2)c1` | -4.896 | 29.88 |
| 52 | `CC1CCN(C(=O)c2cc(NC(=O)c3ccccc3)n(C)n2)CC1` | -11.46 | 7.404 |
| 53 | `Cc1cccc(N2CC3(CCN(C(=O)NC(C)C)C3)CC2=O)c1` (stereo unspecified) | -16.52 | -5.453 |

For reference, 4 entries once more:

{"structure": "Cc1ccc(NC(=O)CSCc2cccnc2)nc1", "Mtb cholesterol medium": -17.89, "Mtb glucose medium": 7.188}
{"structure": "Cc1nc(CN2CCC(N(C)Cc3nnc(C4CC4)n3C)C2)oc1C", "stereo": "stereo unspecified", "Mtb cholesterol medium": -38.58, "Mtb glucose medium": "-6.006 & -3.109"}
{"structure": "CC(C)C(=O)N1CCCC12CCN(C(=O)c1ccno1)C2", "stereo": "stereo unspecified", "Mtb cholesterol medium": -3.794, "Mtb glucose medium": 24.38}
{"structure": "CC(C)c1cccc(S(=O)(=O)NCCCN2CCC(O)CC2)c1", "Mtb cholesterol medium": -6.702, "Mtb glucose medium": "5.704 & 6.126"}